Results are given in words; binding and its absence hold for the method and conditions named. In cells and extracts the contact can be indirect. Some binding calls cover weakened binding; strength is not graded here. For some assays here: Sequences can lack the tags named with a protein.
Assays:
[1] = molecular target: T1, 3× FLAG-tagged TRAF6 (not stated (NM_009424.3 is a mouse entry, from memory)) (UniProt P70196); assay: co-IP; HEK293T cells co-transfected, 48 h; lysed in CHAPS buffer; IP with anti-FLAG antibody and protein A/G PLUS-agarose at 4 °C; blot with anti-HA and anti-FLAG
T1 sequence: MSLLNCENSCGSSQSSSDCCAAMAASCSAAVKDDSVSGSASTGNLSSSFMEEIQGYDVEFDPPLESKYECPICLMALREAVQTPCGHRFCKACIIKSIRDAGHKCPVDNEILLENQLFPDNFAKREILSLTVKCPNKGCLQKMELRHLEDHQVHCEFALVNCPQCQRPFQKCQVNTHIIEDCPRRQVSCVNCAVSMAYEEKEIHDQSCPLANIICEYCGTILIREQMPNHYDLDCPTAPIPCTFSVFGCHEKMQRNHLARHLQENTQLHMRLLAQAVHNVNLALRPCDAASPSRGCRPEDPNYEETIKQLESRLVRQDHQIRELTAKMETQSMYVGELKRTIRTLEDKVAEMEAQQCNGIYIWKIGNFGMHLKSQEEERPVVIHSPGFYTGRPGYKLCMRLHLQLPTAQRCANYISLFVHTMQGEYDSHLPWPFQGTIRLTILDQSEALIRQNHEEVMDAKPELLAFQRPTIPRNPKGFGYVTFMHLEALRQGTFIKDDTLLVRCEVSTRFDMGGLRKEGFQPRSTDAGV

The chains behind the UniProt entries cited, without tags or fusion partners.
UniProt P51150: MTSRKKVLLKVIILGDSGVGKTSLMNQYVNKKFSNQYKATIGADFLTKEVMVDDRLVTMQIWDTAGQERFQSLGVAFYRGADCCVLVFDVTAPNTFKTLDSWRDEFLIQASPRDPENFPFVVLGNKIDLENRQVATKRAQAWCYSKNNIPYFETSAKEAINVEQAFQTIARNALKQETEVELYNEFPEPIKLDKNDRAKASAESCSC

[2] = molecular target: 5× HA-tagged Rab7 (UniProt P51150); assay: co-IP; HEK293T cells co-transfected, 48 h (for Rab7-STX17 with or without FLAG-TRAF6 or TRAF6 4#); lysed in CHAPS buffer; IP with anti-HA antibody and protein A/G PLUS-agarose at 4 °C; blot with the indicated antibodies
[3] = molecular target: Rab7 (endogenous, mouse macrophages) (mouse (endogenous in BMDMs and RAW264.7)) (UniProt P51150); assay: co-IP
[4] = molecular target: T2, TRAF6 (endogenous, mouse macrophages) (mouse (endogenous in BMDMs and RAW264.7)) (UniProt P70196); assay: co-IP
T2 sequence: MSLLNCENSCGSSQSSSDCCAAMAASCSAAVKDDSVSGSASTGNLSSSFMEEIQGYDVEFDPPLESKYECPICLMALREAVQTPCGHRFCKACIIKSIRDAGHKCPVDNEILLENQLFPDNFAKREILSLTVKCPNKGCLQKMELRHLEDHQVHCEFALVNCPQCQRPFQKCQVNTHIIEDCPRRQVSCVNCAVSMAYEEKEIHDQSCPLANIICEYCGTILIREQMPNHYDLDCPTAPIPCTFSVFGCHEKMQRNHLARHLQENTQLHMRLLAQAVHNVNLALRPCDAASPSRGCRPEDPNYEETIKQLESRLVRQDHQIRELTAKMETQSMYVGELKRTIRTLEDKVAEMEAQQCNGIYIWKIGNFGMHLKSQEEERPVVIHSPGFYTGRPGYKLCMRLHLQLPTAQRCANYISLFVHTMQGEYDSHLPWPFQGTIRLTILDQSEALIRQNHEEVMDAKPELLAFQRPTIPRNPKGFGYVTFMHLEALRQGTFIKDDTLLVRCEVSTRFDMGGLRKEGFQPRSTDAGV

With “5× HA-tagged Rab7 (from UniProt P51150 1-207)” the binding [1] was “binds”.

B1: 3× FLAG-tagged TRAF6 (protein, UniProt P70196-1 1-530)
chain: MSLLNCENSCGSSQSSSDCCAAMAASCSAAVKDDSVSGSASTGNLSSSFMEEIQGYDVEFDPPLESKYECPICLMALREAVQTPCGHRFCKACIIKSIRDAGHKCPVDNEILLENQLFPDNFAKREILSLTVKCPNKGCLQKMELRHLEDHQVHCEFALVNCPQCQRPFQKCQVNTHIIEDCPRRQVSCVNCAVSMAYEEKEIHDQSCPLANIICEYCGTILIREQMPNHYDLDCPTAPIPCTFSVFGCHEKMQRNHLARHLQENTQLHMRLLAQAVHNVNLALRPCDAASPSRGCRPEDPNYEETIKQLESRLVRQDHQIRELTAKMETQSMYVGELKRTIRTLEDKVAEMEAQQCNGIYIWKIGNFGMHLKSQEEERPVVIHSPGFYTGRPGYKLCMRLHLQLPTAQRCANYISLFVHTMQGEYDSHLPWPFQGTIRLTILDQSEALIRQNHEEVMDAKPELLAFQRPTIPRNPKGFGYVTFMHLEALRQGTFIKDDTLLVRCEVSTRFDMGGLRKEGFQPRSTDAGV
With B1 the binding [2] was “binds”.

B2: TRAF6 (endogenous, mouse macrophages) (protein, UniProt P70196 1-530)
chain: MSLLNCENSCGSSQSSSDCCAAMAASCSAAVKDDSVSGSASTGNLSSSFMEEIQGYDVEFDPPLESKYECPICLMALREAVQTPCGHRFCKACIIKSIRDAGHKCPVDNEILLENQLFPDNFAKREILSLTVKCPNKGCLQKMELRHLEDHQVHCEFALVNCPQCQRPFQKCQVNTHIIEDCPRRQVSCVNCAVSMAYEEKEIHDQSCPLANIICEYCGTILIREQMPNHYDLDCPTAPIPCTFSVFGCHEKMQRNHLARHLQENTQLHMRLLAQAVHNVNLALRPCDAASPSRGCRPEDPNYEETIKQLESRLVRQDHQIRELTAKMETQSMYVGELKRTIRTLEDKVAEMEAQQCNGIYIWKIGNFGMHLKSQEEERPVVIHSPGFYTGRPGYKLCMRLHLQLPTAQRCANYISLFVHTMQGEYDSHLPWPFQGTIRLTILDQSEALIRQNHEEVMDAKPELLAFQRPTIPRNPKGFGYVTFMHLEALRQGTFIKDDTLLVRCEVSTRFDMGGLRKEGFQPRSTDAGV
In the case of B2, the binding [3] is reported as “binds”.

B3: STX17 (syntaxin 17; endogenous, mouse macrophages) (protein, UniProt Q9D0I4 1-301)
chain: MSEDEEKVKLRRLEPAIQKFTKIVIPTDLERLRKHQINIEKYQRCRIWDKLHEEHINAGRTVQQLRSNIREMEKLCLKVHKDDLVLLKRMIDPVKEAAATATAEFLQLHLESVEELKKQVNDEELLQPSLTRSTTVDGVLHTGEAEAASQSLTQIYALPEIPQDQNAAESWETLEADLIELSHLVTDMSLLVSSQQEKIDSIADHVNSAAVNVEEGTKNLQKAAKYKLAALPVAGALIGGVVGGPIGLLAGFKVAGIAAALGGGVLGFTGGKLIQRRKQKMMEKLTSSCPDLPSQSDKKRS
For B3, the binding [4] was “binds”.

B4: STX17 (overexpressed in HEK293T cells) (protein, UniProt Q9D0I4 1-301)
chain: MSEDEEKVKLRRLEPAIQKFTKIVIPTDLERLRKHQINIEKYQRCRIWDKLHEEHINAGRTVQQLRSNIREMEKLCLKVHKDDLVLLKRMIDPVKEAAATATAEFLQLHLESVEELKKQVNDEELLQPSLTRSTTVDGVLHTGEAEAASQSLTQIYALPEIPQDQNAAESWETLEADLIELSHLVTDMSLLVSSQQEKIDSIADHVNSAAVNVEEGTKNLQKAAKYKLAALPVAGALIGGVVGGPIGLLAGFKVAGIAAALGGGVLGFTGGKLIQRRKQKMMEKLTSSCPDLPSQSDKKRS
B4 was tested, and the binding [2] was “binds”.

— paper PMC10684575
